Reference: PMC2923182
No constants are given. Whether binding was seen depends on the method and setting. For part of these data: Binding seen in cells or lysates may run through a third protein. Some binding calls cover weakened binding; strength is not graded here.

The chains behind the UniProt entries cited, without tags or fusion partners. Residues count along the entry.
UniProt P13500, residues 24-99: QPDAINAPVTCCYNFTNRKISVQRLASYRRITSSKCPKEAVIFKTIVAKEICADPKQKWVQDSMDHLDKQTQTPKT
UniProt P21333: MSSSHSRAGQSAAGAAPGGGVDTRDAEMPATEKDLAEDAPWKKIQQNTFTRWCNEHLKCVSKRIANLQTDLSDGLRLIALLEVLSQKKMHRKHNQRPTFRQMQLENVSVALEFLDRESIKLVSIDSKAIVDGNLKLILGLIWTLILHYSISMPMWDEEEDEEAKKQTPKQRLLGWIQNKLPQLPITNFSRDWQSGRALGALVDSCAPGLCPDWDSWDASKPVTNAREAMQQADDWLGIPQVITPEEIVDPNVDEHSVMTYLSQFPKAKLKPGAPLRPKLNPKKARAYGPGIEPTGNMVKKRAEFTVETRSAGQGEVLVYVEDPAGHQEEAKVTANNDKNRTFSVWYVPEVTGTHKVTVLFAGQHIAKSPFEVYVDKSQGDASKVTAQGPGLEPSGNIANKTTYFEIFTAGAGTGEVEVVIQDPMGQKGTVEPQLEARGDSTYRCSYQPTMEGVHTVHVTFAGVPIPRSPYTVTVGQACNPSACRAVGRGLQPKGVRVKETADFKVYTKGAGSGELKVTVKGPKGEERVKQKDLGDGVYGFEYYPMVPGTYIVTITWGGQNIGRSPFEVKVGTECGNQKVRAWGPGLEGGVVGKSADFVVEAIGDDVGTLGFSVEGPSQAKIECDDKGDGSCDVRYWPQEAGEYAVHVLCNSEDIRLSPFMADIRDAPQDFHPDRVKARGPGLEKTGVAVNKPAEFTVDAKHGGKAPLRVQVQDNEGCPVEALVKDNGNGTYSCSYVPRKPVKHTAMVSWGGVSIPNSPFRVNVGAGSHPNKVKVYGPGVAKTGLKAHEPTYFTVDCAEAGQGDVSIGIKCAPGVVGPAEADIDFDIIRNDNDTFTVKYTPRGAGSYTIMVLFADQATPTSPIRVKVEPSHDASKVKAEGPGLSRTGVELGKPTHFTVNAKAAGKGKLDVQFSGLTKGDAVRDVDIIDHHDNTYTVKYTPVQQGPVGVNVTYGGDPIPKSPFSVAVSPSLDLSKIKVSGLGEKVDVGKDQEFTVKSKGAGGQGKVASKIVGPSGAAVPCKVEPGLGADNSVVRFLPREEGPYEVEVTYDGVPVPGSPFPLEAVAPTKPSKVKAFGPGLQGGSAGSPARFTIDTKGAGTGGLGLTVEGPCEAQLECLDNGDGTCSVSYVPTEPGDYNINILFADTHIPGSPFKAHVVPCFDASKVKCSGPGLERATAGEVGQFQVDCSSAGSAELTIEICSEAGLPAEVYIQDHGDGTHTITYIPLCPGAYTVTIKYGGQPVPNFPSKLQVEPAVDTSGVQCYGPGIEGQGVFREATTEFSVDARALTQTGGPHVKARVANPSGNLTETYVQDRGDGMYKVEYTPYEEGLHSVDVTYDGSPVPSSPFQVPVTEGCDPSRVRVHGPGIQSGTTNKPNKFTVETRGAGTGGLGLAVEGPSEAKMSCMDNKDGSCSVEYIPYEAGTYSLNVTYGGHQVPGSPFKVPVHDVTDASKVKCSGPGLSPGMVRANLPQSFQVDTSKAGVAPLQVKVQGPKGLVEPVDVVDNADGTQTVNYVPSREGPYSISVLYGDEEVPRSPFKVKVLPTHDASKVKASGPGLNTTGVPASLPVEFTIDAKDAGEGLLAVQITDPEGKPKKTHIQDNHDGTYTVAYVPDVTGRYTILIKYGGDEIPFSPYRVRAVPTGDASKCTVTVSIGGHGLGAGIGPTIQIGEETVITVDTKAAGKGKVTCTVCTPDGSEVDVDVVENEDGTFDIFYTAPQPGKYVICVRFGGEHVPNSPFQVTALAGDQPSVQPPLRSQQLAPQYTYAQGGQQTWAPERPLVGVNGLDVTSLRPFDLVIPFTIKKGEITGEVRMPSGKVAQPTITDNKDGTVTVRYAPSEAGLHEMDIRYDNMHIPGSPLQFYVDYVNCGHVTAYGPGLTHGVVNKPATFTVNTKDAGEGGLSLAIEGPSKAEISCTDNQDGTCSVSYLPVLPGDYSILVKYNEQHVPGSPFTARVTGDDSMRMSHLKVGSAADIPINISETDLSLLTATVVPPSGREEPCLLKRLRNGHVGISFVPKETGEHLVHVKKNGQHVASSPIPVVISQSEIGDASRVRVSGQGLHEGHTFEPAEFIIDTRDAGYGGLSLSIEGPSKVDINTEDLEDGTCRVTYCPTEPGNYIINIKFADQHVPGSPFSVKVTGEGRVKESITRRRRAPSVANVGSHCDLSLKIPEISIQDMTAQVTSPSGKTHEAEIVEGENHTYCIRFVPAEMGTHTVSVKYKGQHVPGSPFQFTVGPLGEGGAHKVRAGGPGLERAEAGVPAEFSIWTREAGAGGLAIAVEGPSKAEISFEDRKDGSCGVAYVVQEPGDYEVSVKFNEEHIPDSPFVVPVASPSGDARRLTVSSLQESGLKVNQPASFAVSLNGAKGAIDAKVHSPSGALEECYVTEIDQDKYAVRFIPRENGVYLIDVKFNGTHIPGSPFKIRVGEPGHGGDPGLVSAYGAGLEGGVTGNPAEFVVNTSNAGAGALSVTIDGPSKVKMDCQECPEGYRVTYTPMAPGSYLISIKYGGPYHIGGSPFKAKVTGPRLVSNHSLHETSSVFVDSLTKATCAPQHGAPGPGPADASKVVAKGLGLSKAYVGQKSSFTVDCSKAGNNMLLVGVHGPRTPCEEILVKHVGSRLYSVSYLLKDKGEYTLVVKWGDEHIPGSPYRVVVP

Columns and labels:
[1] = target: FLAG-CCR2B on M2 cells (FLNa-deficient) (UniProt P41597); assay: radioligand binding; whole M2 cells (FLNa-deficient) transfected with CCR2B; 50 000 cpm 125I-Human MCP-1 alone or with unlabelled peptide (10^-11 M and 10^-5 M), 4°C for 5 h; only the binder purified
[2] = target: FLAG-CCR2B on A7 cells (FLNa present) (UniProt P41597); assay: radioligand binding; whole A7 cells (FLNa present) transfected with CCR2B; 50 000 cpm 125I-Human MCP-1 alone or with unlabelled peptide (10^-11 M and 10^-5 M), 4°C for 5 h; only the binder purified
[3] = target: FLAG-CCR2B, full length, in HEK293 cells (pcDNA3-FLAG-CCR2B) (UniProt P41597); assay: co-IP; HEK293 transfected with pcDNA3-FLAG-CCR2B; 1% Brij 96 V lysis buffer; M2 anti-FLAG on Protein G-Sepharose, 4°C overnight; blot with anti-filamin 1

binding [1]	binding [2]	binding [3]	Substance
binds	binds		125I-Human MCP-1 (CCL2) (from UniProt P13500 24-99) (ligand)
		binds	Filamin A, endogenous in HEK293 cells (from UniProt P21333 1-2647)
